Results reported in publication PMC6272137, “Synthesis and Evaluation of Paeonol Derivatives as Potential Multifunctional Agents for the Treatment of Alzheimer’s Disease” (Molecules, 2015).

Test: Metal-chelating study by UV-vis spectrophotometry in methanol
Format: physicochemical

COc1ccc(C(=O)CN2CCN(Cc3ccc(C)cc3)CC2)c(O)c1 [5b, 1-(2-Hydroxy-4-methoxyphenyl)-2-(4-(4-methylbenzyl)piperazin-1-yl) ethanone]
UV spectrum change on addition of CuCl2 (40 μM compound, 40 μM CuCl2, methanol, peak at 275 nm shifted to 271 nm): could interact with Cu^2+ effectively
UV spectrum change on addition of FeSO4 (40 μM compound, 40 μM FeSO4, methanol): absorption intensity change could also be observed
UV spectrum change on titrating with Zn^2+ (40 μM compound, 40 μM ZnCl2, methanol): little change
mole fraction at intersection of the two straight lines (molar ratio method, 40 μM compound titrated with CuCl2 in methanol, absorbance at 375 nm): 0.98
